Laboratory results from the supplement of paper PMC10849652.
This is one part of the list.

Amino acid sequences for entries named in this document (tags omitted). A change or cut given only in a name is not applied to a line headed by its entry.
UniProt Q9BPX6: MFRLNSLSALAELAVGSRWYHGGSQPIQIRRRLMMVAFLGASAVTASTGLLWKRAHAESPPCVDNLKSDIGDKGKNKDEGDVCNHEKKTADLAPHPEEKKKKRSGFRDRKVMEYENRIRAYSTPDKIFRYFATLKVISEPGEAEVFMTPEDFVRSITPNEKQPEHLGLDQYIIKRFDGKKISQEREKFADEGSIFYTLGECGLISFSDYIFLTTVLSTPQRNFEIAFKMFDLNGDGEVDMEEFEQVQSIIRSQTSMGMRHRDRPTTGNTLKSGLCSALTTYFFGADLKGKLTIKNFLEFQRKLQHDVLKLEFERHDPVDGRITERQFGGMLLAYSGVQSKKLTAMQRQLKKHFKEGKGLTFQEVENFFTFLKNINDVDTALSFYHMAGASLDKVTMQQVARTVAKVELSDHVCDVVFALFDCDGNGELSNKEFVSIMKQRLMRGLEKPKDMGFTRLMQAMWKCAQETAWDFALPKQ
UniProt Q9BV20: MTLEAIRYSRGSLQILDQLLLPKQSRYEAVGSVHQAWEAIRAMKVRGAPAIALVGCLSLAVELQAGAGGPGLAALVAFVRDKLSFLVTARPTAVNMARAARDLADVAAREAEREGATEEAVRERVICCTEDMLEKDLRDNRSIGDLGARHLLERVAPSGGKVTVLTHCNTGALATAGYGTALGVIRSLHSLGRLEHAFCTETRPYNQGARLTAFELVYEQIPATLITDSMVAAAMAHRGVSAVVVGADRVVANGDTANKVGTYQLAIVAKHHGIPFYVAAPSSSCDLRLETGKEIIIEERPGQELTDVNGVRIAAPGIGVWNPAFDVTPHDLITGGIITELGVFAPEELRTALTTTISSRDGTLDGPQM
UniProt Q9BQP7: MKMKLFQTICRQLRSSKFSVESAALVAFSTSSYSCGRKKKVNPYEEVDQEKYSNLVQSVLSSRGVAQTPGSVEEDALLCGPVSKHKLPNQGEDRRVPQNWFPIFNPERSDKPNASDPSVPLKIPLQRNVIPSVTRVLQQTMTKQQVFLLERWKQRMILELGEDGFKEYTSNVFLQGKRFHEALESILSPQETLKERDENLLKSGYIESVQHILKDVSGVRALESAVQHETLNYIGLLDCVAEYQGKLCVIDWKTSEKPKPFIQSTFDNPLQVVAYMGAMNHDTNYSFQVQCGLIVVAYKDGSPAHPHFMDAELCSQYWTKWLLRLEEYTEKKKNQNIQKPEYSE
UniProt Q7L1V2: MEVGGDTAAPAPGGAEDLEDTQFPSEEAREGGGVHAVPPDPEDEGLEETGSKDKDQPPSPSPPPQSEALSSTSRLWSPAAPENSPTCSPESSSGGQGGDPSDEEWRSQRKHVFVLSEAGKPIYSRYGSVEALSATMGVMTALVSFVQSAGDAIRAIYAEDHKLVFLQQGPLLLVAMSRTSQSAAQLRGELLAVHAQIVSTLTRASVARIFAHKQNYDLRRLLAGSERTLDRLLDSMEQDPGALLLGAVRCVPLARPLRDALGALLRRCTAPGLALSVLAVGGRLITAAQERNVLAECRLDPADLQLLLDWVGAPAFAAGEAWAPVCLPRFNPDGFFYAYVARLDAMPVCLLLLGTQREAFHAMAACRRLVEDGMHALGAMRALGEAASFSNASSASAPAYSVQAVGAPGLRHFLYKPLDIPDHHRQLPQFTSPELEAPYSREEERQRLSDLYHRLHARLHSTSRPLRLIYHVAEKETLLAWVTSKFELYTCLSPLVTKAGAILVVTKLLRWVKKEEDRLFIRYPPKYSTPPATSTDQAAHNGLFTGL
UniProt Q9NYP9: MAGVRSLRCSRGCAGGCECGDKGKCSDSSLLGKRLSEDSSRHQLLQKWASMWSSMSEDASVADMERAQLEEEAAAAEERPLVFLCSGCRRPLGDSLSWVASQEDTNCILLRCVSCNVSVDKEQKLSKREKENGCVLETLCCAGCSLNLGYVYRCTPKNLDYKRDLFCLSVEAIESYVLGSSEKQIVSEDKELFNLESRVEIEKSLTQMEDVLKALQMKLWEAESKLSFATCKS
UniProt Q9UQ53: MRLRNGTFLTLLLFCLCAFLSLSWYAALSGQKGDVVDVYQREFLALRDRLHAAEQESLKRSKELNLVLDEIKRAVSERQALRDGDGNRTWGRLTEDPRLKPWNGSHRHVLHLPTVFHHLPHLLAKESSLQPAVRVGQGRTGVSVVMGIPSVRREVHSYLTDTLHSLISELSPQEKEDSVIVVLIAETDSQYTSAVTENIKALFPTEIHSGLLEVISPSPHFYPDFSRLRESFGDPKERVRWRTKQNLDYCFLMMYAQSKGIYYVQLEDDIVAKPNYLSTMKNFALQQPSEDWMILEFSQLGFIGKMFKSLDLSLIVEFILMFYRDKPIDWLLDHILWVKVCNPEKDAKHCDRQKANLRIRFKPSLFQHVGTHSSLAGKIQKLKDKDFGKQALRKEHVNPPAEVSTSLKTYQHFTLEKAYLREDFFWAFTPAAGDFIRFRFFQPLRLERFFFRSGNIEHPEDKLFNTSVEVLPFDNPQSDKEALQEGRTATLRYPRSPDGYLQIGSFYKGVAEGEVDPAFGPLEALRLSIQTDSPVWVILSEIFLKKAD
UniProt Q96PC5: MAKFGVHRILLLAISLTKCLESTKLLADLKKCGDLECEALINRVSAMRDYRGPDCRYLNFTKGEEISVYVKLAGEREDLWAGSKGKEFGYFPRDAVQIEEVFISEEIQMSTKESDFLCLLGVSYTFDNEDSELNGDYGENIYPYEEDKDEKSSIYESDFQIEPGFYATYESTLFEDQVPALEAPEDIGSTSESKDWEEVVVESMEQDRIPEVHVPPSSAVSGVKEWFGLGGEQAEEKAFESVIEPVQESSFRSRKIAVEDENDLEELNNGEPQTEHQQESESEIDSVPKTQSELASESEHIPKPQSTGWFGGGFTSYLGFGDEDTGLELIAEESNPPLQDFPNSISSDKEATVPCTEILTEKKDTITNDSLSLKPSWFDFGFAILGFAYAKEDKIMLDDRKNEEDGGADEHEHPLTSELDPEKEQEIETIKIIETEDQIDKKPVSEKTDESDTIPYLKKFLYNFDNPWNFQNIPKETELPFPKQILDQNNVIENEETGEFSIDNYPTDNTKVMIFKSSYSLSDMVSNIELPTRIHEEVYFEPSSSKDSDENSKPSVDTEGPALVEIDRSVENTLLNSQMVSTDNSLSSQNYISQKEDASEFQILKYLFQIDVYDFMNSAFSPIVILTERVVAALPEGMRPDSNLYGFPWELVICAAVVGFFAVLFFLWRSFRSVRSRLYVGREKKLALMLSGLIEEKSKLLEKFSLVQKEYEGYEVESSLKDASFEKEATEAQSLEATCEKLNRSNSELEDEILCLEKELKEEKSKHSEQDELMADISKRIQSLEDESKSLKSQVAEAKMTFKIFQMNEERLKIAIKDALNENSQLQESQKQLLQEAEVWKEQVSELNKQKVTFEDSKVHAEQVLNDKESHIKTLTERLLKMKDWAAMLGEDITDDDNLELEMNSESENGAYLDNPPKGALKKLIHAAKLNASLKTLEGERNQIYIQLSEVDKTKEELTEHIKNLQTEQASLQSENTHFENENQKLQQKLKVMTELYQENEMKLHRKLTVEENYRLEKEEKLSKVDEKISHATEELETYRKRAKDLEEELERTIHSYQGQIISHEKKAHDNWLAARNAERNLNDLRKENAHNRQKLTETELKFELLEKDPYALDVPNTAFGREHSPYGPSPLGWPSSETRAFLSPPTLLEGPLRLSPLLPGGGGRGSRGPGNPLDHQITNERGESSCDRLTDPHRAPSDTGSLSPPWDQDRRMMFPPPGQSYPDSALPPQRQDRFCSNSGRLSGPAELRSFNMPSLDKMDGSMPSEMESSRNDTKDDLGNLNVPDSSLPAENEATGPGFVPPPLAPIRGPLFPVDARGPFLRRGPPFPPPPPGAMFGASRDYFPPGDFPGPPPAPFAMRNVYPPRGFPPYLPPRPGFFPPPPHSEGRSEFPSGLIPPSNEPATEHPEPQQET
UniProt Q7L9L4: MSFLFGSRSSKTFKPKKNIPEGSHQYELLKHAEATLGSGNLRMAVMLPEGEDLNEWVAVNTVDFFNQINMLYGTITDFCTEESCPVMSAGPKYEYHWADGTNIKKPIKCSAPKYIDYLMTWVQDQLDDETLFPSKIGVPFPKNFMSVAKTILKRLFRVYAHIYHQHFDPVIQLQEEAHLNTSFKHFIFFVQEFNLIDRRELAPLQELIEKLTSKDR
UniProt Q8TD10: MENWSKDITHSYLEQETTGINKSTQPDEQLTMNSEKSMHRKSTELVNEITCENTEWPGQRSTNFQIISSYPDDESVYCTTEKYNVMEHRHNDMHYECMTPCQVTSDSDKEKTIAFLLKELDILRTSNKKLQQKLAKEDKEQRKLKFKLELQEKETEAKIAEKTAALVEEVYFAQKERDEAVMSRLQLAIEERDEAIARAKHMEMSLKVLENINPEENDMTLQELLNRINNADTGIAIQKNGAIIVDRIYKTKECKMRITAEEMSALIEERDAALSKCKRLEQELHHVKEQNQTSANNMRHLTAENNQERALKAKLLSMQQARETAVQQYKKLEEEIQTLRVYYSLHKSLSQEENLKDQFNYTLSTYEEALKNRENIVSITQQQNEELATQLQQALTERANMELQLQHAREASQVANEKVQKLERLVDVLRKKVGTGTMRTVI
UniProt Q9BVC4, whole entry, looked up: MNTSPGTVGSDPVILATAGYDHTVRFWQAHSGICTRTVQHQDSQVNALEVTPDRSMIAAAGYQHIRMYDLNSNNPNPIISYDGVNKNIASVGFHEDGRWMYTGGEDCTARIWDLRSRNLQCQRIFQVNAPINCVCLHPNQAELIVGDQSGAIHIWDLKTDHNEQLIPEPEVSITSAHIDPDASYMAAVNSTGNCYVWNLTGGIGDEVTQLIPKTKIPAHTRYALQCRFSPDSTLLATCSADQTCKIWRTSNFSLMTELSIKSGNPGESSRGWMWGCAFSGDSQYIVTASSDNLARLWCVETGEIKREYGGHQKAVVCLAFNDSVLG
UniProt Q14165: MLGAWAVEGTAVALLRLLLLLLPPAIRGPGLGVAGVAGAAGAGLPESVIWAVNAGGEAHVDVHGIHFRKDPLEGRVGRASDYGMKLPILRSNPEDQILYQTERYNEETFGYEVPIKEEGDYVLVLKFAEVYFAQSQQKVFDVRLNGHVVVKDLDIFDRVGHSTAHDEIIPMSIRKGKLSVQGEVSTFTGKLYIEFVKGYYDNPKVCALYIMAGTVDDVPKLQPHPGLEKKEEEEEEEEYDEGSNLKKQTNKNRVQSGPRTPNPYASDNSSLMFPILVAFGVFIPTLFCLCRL
UniProt Q5TGZ0: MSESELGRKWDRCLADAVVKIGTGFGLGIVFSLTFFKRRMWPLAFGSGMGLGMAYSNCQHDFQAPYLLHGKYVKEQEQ
UniProt Q8N3F8: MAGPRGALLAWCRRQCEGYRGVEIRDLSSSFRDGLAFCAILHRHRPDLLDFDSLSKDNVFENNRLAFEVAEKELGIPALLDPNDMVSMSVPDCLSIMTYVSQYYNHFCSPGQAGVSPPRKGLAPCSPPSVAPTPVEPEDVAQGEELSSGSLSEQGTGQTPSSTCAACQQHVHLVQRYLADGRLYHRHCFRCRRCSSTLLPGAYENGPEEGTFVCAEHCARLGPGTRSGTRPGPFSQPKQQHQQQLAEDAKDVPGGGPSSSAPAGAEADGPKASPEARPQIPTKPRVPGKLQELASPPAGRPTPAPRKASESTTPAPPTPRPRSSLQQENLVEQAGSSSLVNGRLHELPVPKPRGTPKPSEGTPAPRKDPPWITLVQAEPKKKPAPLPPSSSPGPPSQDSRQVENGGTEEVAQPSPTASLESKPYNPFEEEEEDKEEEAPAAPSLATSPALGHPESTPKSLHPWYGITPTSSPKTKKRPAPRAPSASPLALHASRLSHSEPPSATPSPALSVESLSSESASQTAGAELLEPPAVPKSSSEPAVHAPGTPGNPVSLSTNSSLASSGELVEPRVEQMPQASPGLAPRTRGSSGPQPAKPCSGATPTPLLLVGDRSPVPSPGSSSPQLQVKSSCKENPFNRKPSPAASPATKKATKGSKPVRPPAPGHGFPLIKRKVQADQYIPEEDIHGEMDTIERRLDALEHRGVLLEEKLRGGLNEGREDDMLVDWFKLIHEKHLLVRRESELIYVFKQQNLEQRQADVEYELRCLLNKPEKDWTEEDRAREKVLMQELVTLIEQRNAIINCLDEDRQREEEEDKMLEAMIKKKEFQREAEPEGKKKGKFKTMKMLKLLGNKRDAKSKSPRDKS
UniProt Q9H8M7: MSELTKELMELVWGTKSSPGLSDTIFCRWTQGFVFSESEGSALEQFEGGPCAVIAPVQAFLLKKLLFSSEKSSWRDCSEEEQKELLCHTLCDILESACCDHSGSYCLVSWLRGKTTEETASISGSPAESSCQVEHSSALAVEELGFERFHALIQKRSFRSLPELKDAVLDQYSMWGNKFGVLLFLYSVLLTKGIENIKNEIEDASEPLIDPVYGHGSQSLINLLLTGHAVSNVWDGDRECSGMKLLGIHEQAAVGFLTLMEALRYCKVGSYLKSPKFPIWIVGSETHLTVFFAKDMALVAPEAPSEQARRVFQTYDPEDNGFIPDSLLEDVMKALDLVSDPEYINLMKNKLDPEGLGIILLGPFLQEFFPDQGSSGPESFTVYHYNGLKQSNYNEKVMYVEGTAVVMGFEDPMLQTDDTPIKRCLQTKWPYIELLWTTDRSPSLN

Legend:
Experiment in all cases: log2 fold change, soluble protein after heating vs DMSO (PISA); higher = thermal stabilisation; K562 lysate, 10 uM; active = over 0.2 and 3.5 SD of the protein, either way, in both replicates (recomputed)
lapatinib = compound: CS(=O)(=O)CCNCc1ccc(-c2ccc3ncnc(Nc4ccc(OCc5cccc(F)c5)c(Cl)c4)c3c2)o1 [lapatinib]
Method in brief: (§1)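 K562 pellets were dounce-homogenised in PBS pH 7.4 containing 1 mM MgCl2, and the crude extract, at 1 mg/mL protein, was exposed to 10 μM compound for 30 min. Aliquots were heated for 3 min across 48°C-58°C, pooled, brought to 0.5% NP-40 at 4°C and spun at 21,000xg for 90 min, with the supernatant taken as soluble protein. TMTpro 16plex LC-MS/MS with equalised channel sums quantified that protein. Values are log-two fold changes in thermal stability relative to solvent controls, taken from duplicates.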

pictilisib = compound: CS(=O)(=O)N1CCN(Cc2cc3nc(-c4cccc5[nH]ncc45)nc(N4CCOCC4)c3s2)CC1 [pictilisib]
Method in brief: as §1

crizotinib = compound: C[C@@H](Oc1cc(-c2cnn(C3CCNCC3)c2)cnc1N)c1c(Cl)ccc(F)c1Cl [crizotinib]
Method in brief: as §1

[1] = compound: C[C@H](C1=CC=C(C=C1)C(=O)NC2=C3C=CNC3=NC=C2)N
Method in brief: as §1

duvelisib = compound: C[C@H](Nc1ncnc2nc[nH]c12)c1cc2cccc(Cl)c2c(=O)n1-c1ccccc1 [duvelisib]
Method in brief: as §1

gandotinib = compound: Cc1cc(Nc2cc(CN3CCOCC3)c3nc(C)c(Cc4ccc(Cl)cc4F)n3n2)n[nH]1 [gandotinib]
Method in brief: as §1

tozasertib = compound: Cc1cc(Nc2cc(N3CCN(C)CC3)nc(Sc3ccc(NC(=O)C4CC4)cc3)n2)n[nH]1 [tozasertib]
Method in brief: as §1

doramapimod = compound: Cc1ccc(-n2nc(C(C)(C)C)cc2NC(=O)Nc2ccc(OCCN3CCOCC3)c3ccccc23)cc1 [doramapimod]
Method in brief: as §1

bafetinib = compound: Cc1ccc(NC(=O)c2ccc(CN3CC[C@H](N(C)C)C3)c(C(F)(F)F)c2)cc1Nc1nccc(-c2cncnc2)n1 [bafetinib]
Method in brief: as §1

[2] = compound: Cc1cccc(CC(=O)N2CCc3c2ccc(-c2cn(C)c4ncnc(N)c24)c3F)n1
Method in brief: as §1

Row | Target | log2 fold change (lapatinib) | log2 fold change (pictilisib) | log2 fold change (crizotinib) | log2 fold change [1] | log2 fold change (duvelisib) | log2 fold change (gandotinib) | log2 fold change (tozasertib) | log2 fold change (doramapimod) | log2 fold change (bafetinib) | log2 fold change [2]
1 | MGAT2 (UniProt Q10469) | inactive: -0.012 | inactive: -0.047 | inactive: 0.017 | inactive: -0.05 | inactive: -0.038 | inactive: 0.03 | inactive: 0.12 | inactive: 0.004 | inactive: -0.094 | inactive: 0.05
2 | MICU1 isoform 3 (UniProt Q9BPX6) | inactive: -0.052 | inactive: -0.053 | inactive: -0.107 | active: 0.253 | inactive: -0.007 | active: -0.408 | inactive: 0.049 | inactive: -0.008 | inactive: -0.077 | inactive: -0.209
3 | MRI1 (UniProt Q9BV20) | inactive: -0.024 | inactive: -0.014 | inactive: 0.003 | inactive: -0.061 | inactive: 0.019 | inactive: 0.047 | inactive: 0.016 | inactive: 0.011 | inactive: -0.031 | inactive: 0.044
4 | MIEF1 (UniProt L0R8F8) | inactive: 0.017 | inactive: -0.051 | inactive: -0.017 | inactive: 0.143 | inactive: -0.015 | inactive: -0.102 | inactive: -0.058 | inactive: 0.028 | inactive: 0.064 | inactive: -0.065
5 | MGME1 (UniProt Q9BQP7) | inactive: 0.002 | inactive: -0.01 | inactive: -0.005 | inactive: 0.005 | inactive: 0.016 | inactive: 0.014 | inactive: 0.01 | inactive: -0.017 | inactive: 0.006 | inactive: -0.022
6 | MON1B (UniProt Q7L1V2) | inactive: -0.017 | inactive: -0.041 | inactive: 0.004 | inactive: -0.079 | inactive: 0.034 | inactive: 0.023 | inactive: -0.031 | inactive: -0.003 | inactive: -0.054 | inactive: 0.069
7 | MIS18A (UniProt Q9NYP9) | inactive: 0 | inactive: 0.03 | inactive: 0.069 | inactive: 0.175 | inactive: 0.015 | inactive: -0.074 | inactive: 0.055 | inactive: 0.028 | inactive: -0.052 | inactive: -0.121
8 | MOB4 (UniProt Q9Y3A3) | inactive: 0.009 | inactive: -0.004 | inactive: -0.025 | inactive: 0.001 | inactive: -0.027 | inactive: 0.11 | inactive: -0.016 | inactive: 0.051 | inactive: -0.036 | inactive: 0.019
9 | MMGT1 (UniProt Q8N4V1) | inactive: 0.013 | inactive: -0.044 | inactive: -0.015 | inactive: -0.055 | inactive: -0.035 | inactive: 0.046 | inactive: -0.023 | inactive: 0.032 | inactive: -0.023 | inactive: 0.028
10 | MGAT4B isoform 3 (UniProt Q9UQ53) | inactive: -0.046 | inactive: -0.115 | inactive: 0.068 | inactive: -0.083 | inactive: -0.024 | inactive: 0.019 | inactive: 0.041 | inactive: -0.027 | inactive: -0.107 | inactive: 0.063
11 | MIA2 (UniProt Q96PC5) | inactive: 0.101 | inactive: -0.066 | inactive: -0.044 | inactive: 0.183 | inactive: -0.05 | inactive: -0.161 | inactive: 0.003 | inactive: 0.018 | inactive: -0.019 | inactive: -0.088
12 | MRE11 isoform 3 (UniProt P49959) | inactive: 0.019 | inactive: 0.01 | inactive: 0.013 | inactive: 0.001 | inactive: -0.018 | inactive: -0.018 | inactive: 0.028 | inactive: -0.023 | inactive: 0.003 | inactive: 0.018
13 | MOB1B isoform 2 (UniProt Q7L9L4) | inactive: -0.024 | inactive: 0.066 | inactive: 0.021 | inactive: -0.101 | inactive: 0.008 | inactive: 0.085 | inactive: 0.014 | inactive: 0.006 | inactive: -0.027 | inactive: 0.057
14 | MPHOSPH8 (UniProt Q99549) | inactive: -0.011 | inactive: -0.287 | inactive: -0.04 | inactive: 0 | inactive: -0.006 | inactive: 0.023 | inactive: -0.038 | inactive: -0.04 | inactive: -0.558 | inactive: 0.04
15 | MIPOL1 (UniProt Q8TD10) | inactive: -0.019 | inactive: -0.084 | inactive: -0.126 | inactive: 0.184 | inactive: 0.128 | inactive: -0.001 | inactive: -0.132 | inactive: 0.409 | inactive: -0.36 | inactive: -0.034
16 | MRPL20 (UniProt Q9BYC9) | inactive: 0.147 | inactive: 0.018 | inactive: -0.025 | inactive: -0.025 | inactive: 0.027 | inactive: 0.032 | inactive: 0.019 | inactive: 0.027 | inactive: -0.07 | inactive: 0.076
17 | MLST8 (UniProt Q9BVC4) | inactive: -0.028 | inactive: -0.073 | inactive: 0.004 | inactive: -0.034 | inactive: -0.028 | inactive: -0.055 | inactive: 0.078 | inactive: 0.08 | inactive: -0.026 | inactive: 0.032
18 | MRPL12 (UniProt P52815) | inactive: 0.094 | inactive: -0.019 | inactive: 0.086 | inactive: -0.1 | inactive: 0.011 | inactive: 0 | inactive: 0.077 | inactive: -0.031 | inactive: -0.073 | inactive: 0.035
19 | MNX1 (UniProt P50219) | inactive: 0.051 | inactive: 0.259 | inactive: -0.016 | inactive: -0.247 | inactive: 0.008 | inactive: -0.077 | inactive: -0.017 | inactive: -0.007 | inactive: 0 | inactive: 0.014
20 | MLEC (UniProt Q14165) | inactive: -0.017 | inactive: -0.004 | inactive: 0.014 | inactive: 0.057 | inactive: -0.019 | inactive: 0.005 | inactive: 0.01 | inactive: -0.019 | inactive: 0.004 | inactive: -0.026
21 | MPLKIP (UniProt Q8TAP9) | inactive: -0.011 | inactive: 0.083 | inactive: -0.015 | inactive: -0.161 | inactive: 0.074 | inactive: 0.144 | inactive: -0.02 | inactive: 0.046 | inactive: 0.009 | inactive: 0.096
22 | MICOS10 (UniProt Q5TGZ0) | inactive: 0.032 | inactive: 0.014 | inactive: 0.005 | inactive: -0.049 | inactive: 0.108 | inactive: 0 | inactive: 0.055 | inactive: -0.024 | inactive: 0.12 | inactive: 0.059
23 | MICALL1 (UniProt Q8N3F8) | inactive: -0.012 | inactive: 0.013 | inactive: -0.007 | inactive: 0.002 | inactive: -0.001 | inactive: -0.024 | inactive: 0.013 | inactive: 0.015 | inactive: -0.048 | inactive: -0.015
24 | MLH1 (UniProt P40692) | inactive: -0.006 | inactive: 0.001 | inactive: -0.085 | inactive: -0.035 | inactive: 0.016 | inactive: -0.04 | inactive: -0.043 | inactive: 0.013 | inactive: -0.063 | inactive: 0.038
25 | MLYCD (UniProt O95822) | inactive: -0.039 | inactive: 0.006 | inactive: 0.006 | inactive: 0.043 | inactive: 0.019 | inactive: -0.012 | inactive: 0.06 | inactive: 0.016 | inactive: -0.022 | inactive: -0.038
26 | MINDY3 (UniProt Q9H8M7) | inactive: -0.004 | inactive: -0.028 | inactive: 0.041 | inactive: -0.08 | inactive: 0 | inactive: 0.034 | inactive: 0.045 | inactive: -0.003 | inactive: -0.025 | inactive: 0.008
27 | MRPL10 isoform 2 (UniProt Q7Z7H8) | inactive: -0.02 | inactive: -0.041 | inactive: -0.104 | inactive: 0.152 | inactive: 0.034 | inactive: -0.037 | inactive: -0.01 | inactive: 0.104 | inactive: -0.059 | inactive: -0.012

Some of the entries above, set out differently:
Row	Target	log2 fold change (lapatinib)	log2 fold change (pictilisib)	log2 fold change (crizotinib)	log2 fold change [1]	log2 fold change (duvelisib)	log2 fold change (gandotinib)	log2 fold change (tozasertib)	log2 fold change (doramapimod)	log2 fold change (bafetinib)	log2 fold change [2]
15	MIPOL1 (UniProt Q8TD10)	inactive: -0.019	inactive: -0.084	inactive: -0.126	inactive: 0.184	inactive: 0.128	inactive: -0.001	inactive: -0.132	inactive: 0.409	inactive: -0.36	inactive: -0.034
16	MRPL20 (UniProt Q9BYC9)	inactive: 0.147	inactive: 0.018	inactive: -0.025	inactive: -0.025	inactive: 0.027	inactive: 0.032	inactive: 0.019	inactive: 0.027	inactive: -0.07	inactive: 0.076
